Results as given in paper PMC12019499, “Novel Lectins from Bauhinia with Differential N-Glycan Binding Profiles” (ACS Omega, 2025).

Columns and labels:
BBL = test system: T1, BBL; test: hemagglutination inhibition; assay type: cell-based, Bauhinia bauhinioides; conditions: rabbit erythrocytes
T1 construct: native, purified from seeds by a published protocol; 76 residues previously published (unaligned); Alexa Fluor 555 labelled for arrays
From the text: hemagglutination inhibition on BBL

BRL = test system: T2, BRL; test: hemagglutination inhibition; assay type: cell-based, Bauhinia rufa; conditions: rabbit erythrocytes
T2 construct: native, purified from seed flour on agarose-lactose; Alexa Fluor 555 labelled for arrays
From the text: hemagglutination inhibition on BRL

In the case of `CO[C@H]1O[C@H](CO)[C@H](O)[C@H](O)[C@H]1O` [α-methyl-D-galactopyranoside], the BBL (BBL) was 1.56 mM.
With `CC(=O)N[C@H]1C(O)O[C@H](CO)[C@H](O)[C@@H]1O` (stereo partly drawn) [N-acetyl-D-galactosamine] the BBL (BBL) was 1.56 mM and the BRL (BRL) was 0.78 mM.
`OC[C@H]1O[C@@H](O[C@H]2[C@H](O)[C@@H](O)[C@@H](O)O[C@@H]2CO)[C@H](O)[C@@H](O)[C@H]1O` [α-lactose] gave a BBL (BBL) of 3.16 mM and a BRL (BRL) of 6.25 mM.
Work on `OC[C@H]1O[C@H](OC[C@H]2OC(O)[C@H](O)[C@@H](O)[C@@H]2O)[C@H](O)[C@@H](O)[C@H]1O` (stereo partly drawn) [melibiose] yielded a BRL (BRL) of 6.25 mM.
`OC[C@H]1OC(O)[C@H](O)[C@@H](O)[C@H]1O` (stereo partly drawn) [D-galactose] was tested, and the BBL (BBL) was 3.16 mM and the BRL (BRL) was 1.56 mM.
In the case of `C[C@@H]1OC(O)[C@H](O)[C@H](O)[C@H]1O` (stereo partly drawn) [L-rhamnose], the BRL (BRL) was 25 mM.
